From PMC11231140 come the findings set out here.

The chains behind the UniProt entries cited, without tags or fusion partners.
UniProt Q8C147: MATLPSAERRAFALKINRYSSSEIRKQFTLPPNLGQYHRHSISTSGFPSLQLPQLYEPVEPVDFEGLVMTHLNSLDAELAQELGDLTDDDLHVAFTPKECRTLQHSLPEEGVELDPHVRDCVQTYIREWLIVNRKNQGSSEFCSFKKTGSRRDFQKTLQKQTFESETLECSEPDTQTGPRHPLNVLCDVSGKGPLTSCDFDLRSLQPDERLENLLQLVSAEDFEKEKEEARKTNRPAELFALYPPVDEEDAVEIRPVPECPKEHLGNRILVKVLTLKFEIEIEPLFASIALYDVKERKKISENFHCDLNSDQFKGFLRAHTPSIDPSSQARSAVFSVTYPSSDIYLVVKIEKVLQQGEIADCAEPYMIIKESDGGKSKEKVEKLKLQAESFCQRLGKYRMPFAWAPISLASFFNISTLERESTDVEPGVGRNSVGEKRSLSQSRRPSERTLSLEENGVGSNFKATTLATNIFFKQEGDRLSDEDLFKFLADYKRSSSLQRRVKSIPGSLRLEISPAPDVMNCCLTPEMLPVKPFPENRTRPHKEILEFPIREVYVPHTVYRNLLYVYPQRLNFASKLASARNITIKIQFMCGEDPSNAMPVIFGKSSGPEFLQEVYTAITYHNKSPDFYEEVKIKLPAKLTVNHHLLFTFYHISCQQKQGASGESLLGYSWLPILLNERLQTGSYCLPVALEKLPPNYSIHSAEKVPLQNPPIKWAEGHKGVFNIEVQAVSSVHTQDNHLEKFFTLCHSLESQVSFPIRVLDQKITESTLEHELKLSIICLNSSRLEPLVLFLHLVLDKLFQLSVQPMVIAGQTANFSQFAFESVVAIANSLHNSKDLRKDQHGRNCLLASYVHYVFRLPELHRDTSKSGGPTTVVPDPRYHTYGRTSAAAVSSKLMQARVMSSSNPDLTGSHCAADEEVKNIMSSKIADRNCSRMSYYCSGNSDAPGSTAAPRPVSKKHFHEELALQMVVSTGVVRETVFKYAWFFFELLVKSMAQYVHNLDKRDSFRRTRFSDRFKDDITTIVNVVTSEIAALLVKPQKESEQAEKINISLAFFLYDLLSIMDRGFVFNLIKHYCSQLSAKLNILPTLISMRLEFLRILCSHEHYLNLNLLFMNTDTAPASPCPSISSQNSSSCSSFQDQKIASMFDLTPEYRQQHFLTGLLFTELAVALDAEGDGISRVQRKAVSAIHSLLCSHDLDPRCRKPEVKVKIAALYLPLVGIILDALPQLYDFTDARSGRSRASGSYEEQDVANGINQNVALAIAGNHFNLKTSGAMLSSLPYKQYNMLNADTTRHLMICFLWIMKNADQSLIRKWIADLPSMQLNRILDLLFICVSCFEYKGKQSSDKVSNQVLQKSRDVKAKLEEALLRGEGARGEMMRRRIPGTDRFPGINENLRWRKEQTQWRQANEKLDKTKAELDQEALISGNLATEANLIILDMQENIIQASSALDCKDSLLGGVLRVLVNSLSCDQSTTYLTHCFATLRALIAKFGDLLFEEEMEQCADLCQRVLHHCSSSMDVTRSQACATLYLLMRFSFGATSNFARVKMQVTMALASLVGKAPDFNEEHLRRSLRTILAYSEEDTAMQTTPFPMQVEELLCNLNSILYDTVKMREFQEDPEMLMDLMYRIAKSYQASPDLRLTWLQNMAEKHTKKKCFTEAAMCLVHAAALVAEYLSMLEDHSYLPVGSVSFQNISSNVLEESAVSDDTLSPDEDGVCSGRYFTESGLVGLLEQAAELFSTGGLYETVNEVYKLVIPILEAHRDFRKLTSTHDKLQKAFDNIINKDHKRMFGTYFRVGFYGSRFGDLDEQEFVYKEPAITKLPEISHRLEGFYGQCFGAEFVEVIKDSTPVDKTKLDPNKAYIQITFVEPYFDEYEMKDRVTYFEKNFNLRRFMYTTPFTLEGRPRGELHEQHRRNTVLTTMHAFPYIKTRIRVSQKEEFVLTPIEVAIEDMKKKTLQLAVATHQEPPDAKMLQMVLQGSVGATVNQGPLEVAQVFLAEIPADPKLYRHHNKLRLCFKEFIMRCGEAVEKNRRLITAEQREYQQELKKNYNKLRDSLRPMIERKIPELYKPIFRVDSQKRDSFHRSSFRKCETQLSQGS
UniProt P60766: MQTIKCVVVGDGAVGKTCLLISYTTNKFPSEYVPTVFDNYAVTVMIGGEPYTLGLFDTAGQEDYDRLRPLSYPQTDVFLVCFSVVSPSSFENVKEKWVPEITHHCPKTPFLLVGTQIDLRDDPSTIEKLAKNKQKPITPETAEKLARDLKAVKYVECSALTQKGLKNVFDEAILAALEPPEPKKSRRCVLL

Results are given in words; binding and its absence hold for the method and conditions named. In cells and extracts the contact can be indirect. Some results given as binding are weak or reduced against the parent protein; the word gives no strength.

The target of test [1] is Dedicator of cytokinesis 8 (DOCK8) (mouse (endogenous in MH-S)) (UniProt Q8C147). Nature of the test: co-IP; MH-S cells with circCDC42-OE plasmid or empty vector, or circCDC42 siRNA or siNC, infected with KP; CDC42 and CDC42-165aa bound to DOCK8; precipitating antibody not stated.
Test [2] deals with T1, ASC (mouse (endogenous in MH-S)) (UniProt Q9EPB4).
T1 sequence: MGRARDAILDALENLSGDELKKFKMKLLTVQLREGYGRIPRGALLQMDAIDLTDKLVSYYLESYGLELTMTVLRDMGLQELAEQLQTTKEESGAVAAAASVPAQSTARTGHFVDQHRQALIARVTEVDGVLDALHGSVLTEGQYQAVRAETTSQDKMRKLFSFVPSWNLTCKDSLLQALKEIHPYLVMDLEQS
Nature of the test: co-IP; MH-S cells with empty vector or circCDC42-OE plasmid for 24 h, then KP at MOI 20:1 for 4 h; co-immunoprecipitation with the anti-Pyrin and ASC antibodies, respectively.

“Cell division cycle 42 (CDC42) (from UniProt P60766 1-191)”: in test [1], the binding result is listed as “binds”.

B1: Pyrin (protein, UniProt Q9JJ26 1-767)
chain: MAKTLGDHLLNTLEELLPYDFEKFKFKLQNTSLEKGHSKIPRGHMQMARPVKLASLLITYYGEEYAVRLTLQILRATNQRQLAEELRKATGTEHLIEENRVGGSVQSSVENKAKSVKVPDVPEGDGTQQNNDESDTLPSSQAEVGKGPQKKSLTKRKDQRGPESLDSQTKPWTRSTAPLYRRTQGTQSPGDKESTASAQLRRNVSSAGRLQGLYNNAPGRRESKKAEVYVYLPSGKKRPRSLEITTYSREGEPPNSEVLPTQEETRNGSLIRMRTATLNGRTTGALEKGTGIPEHSMVLDEKTFRNMSSKTSLIGEERCPTSWTENGNGSPETTESSGETAGSILSDPEVPLSLCEKPAKTPEDPASLGQAACEGRSQDKAVCPLCHTQEGDLRGDTCVQSSCSCSIAPGDPKASGRCSICFQCQGLLARKSCEAQSPQSLPQCPRHMKQVLLLFCEDHREPICLICRLSLEHQGHRVRPIEEAALEYKEQIREQLERLREMRGYVEEHRLQGDKKTDDFLKQTEIQKQKISCPLEKLYQLLEKQEQLFVTWLQELSQTISKVRETYYTRVSLLDEMIEELEAKQDQPEWDLMQDIGITLHRAKMMSASELLDTPPGVKEKLHLLYQKSKSVEKNMQCFSEMLSSEMAFSASDVAKWEGRQPSATQVQGLVPTVHLKCDGAHTQDCDVVFYPEREAGGSEPKDYLHPQPAQDTPELHEIHSRNNKRKFKSFLKWKPSFSRTDWRLRTCCYRDLDQAAAHPNLIFSMI
Turning to B1, the binding entry in test [2] was “binds”.
